Laboratory results: PubChem BioAssay AID504808 (Drosophila RNAi Screening Center, 2011)
Aim: 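Chromatin factors that keep E2F targets switched off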 (primary screen). Cell system: Drosophila S2 cells. Knock-down reagent: long dsRNA against Drosophila genes. Measurement: 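Firefly luciferase driven by E2F sites, normalised to Renilla luciferase on the same minimal promoter, measured by plate reader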. Reading the numbers: E2F firefly: higher = more E2F reporter activity; Renilla normaliser: higher = more normaliser reporter signal. Rule for the call: 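Called active if the normalised E2F reporter went up by over 50%; the cutoff is arbitrary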.
The screen tested about 21,000 reagents; below is an unselected part of those with a known target gene and a result. In the full data, 18 (0.084%) got an active call. 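Raw counts without plate normalisation, one of two replicates; the ratio scores behind the calls were not deposited.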 The record does not give: the amount of reagent, the time to read-out.

| Target gene | dsRNA | E2F firefly, rep 1 | Renilla normaliser, rep 1 | outcome |
| --- | --- | --- | --- | --- |
| CG1416 (GeneID 35426) | DRSC03706 | 68998 | 3169 | inactive |
| Nle (GeneID 33234) | DRSC00763 | 1.70e5 | 5202 | inactive |
| sns (GeneID 44097) | DRSC06423 | 1.10e5 | 3794 | inactive |
| sns (GeneID 44097) | DRSC07687 | 1.19e5 | 4489 | inactive |
| sns (GeneID 44097) | DRSC07688 | 55662 | 4498 | inactive |
| sns (GeneID 44097) | DRSC07689 | 1.55e5 | 4755 | inactive |
| sns (GeneID 44097) | DRSC07691 | 1.43e5 | 4777 | inactive |
| sns (GeneID 44097) | DRSC07692 | 1.26e5 | 4175 | inactive |
| Gadd45 (GeneID 35646) | DRSC06033 | 1.38e5 | 4765 | inactive |
| Usp16-45 (GeneID 31458) | DRSC18352 | 7867 | 688 | inactive |
| Miga (GeneID 31775) | DRSC17821 | 88717 | 4716 | inactive |
| CG17267 (GeneID 42454) | DRSC15207 | 1.40e5 | 7206 | inactive |
| Spn28Da (GeneID 34082) | DRSC02162 | 1.48e5 | 4707 | inactive |
| Coa7 (GeneID 3355158) | DRSC20967 | 1.43e5 | 6324 | inactive |
| Dbx (GeneID 38254) | DRSC08270 | 91113 | 3784 | inactive |
| Dbx (GeneID 38254) | DRSC08271 | 91217 | 4261 | inactive |
| Dbx (GeneID 38254) | DRSC08394 | 99712 | 4257 | inactive |
| mthl11 (GeneID 117467) | DRSC12779 | 75842 | 3869 | inactive |
| Ir48c (GeneID 36257) | DRSC06154 | 88575 | 4057 | inactive |
| CG17287 (GeneID 36939) | DRSC06659 | 1.61e5 | 5033 | inactive |
| Jhbp14 (GeneID 34728) | DRSC01988 | 99587 | 4378 | inactive |
| CG18754 (GeneID 59145) | DRSC15387 | 88996 | 5238 | inactive |
| CG14627 (GeneID 31063) | DRSC18630 | 1.09e5 | 5562 | inactive |
| Hsp60B (GeneID 48572) | DRSC00542 | 81488 | 3837 | inactive |
| Lgr3 (GeneID 43098) | DRSC15704 | 1.17e5 | 5712 | inactive |
| Lgr3 (GeneID 43098) | DRSC15706 | 1.06e5 | 6286 | inactive |
| CG10958 (GeneID 31736) | DRSC17768 | 8161 | 640 | inactive |
| Muc18B (GeneID 32913) | DRSC20064 | 1.35e5 | 6475 | inactive |
| CSN7 (GeneID 35816) | DRSC06807 | 2469 | 233 | inactive |
| CSN7 (GeneID 35816) | DRSC06808 | 1.33e5 | 5492 | inactive |
| CG30495 (GeneID 246651) | DRSC06703 | 1.45e5 | 4550 | inactive |
| ATP8A (GeneID 36488) | DRSC05421 | 1.25e5 | 4820 | inactive |
| ATP8A (GeneID 36488) | DRSC06643 | 2762 | 216 | inactive |
| ATP8A (GeneID 36488) | DRSC06644 | 1.02e5 | 5057 | inactive |
| CG13062 (GeneID 39799) | DRSC09945 | 1.67e5 | 9360 | inactive |
| CG3104 (GeneID 33486) | DRSC00567 | 1.60e5 | 5275 | inactive |
| CG8321 (GeneID 36287) | DRSC07148 | 3036 | 198 | inactive |
| Pxt (GeneID 42131) | DRSC17040 | 1.25e5 | 9387 | inactive |
| Cyp305a1 (GeneID 40161) | DRSC11126 | 81066 | 4684 | inactive |
| ChLD3 (GeneID 35002) | DRSC02640 | 1.07e5 | 4425 | inactive |
| ac (GeneID 30981) | DRSC18734 | 43508 | 3796 | inactive |
| alpha-Est3 (GeneID 40907) | DRSC12615 | 76923 | 3304 | inactive |
| CG13640 (GeneID 42967) | DRSC14639 | 98153 | 5400 | inactive |
| CG8768 (GeneID 36400) | DRSC07259 | 164 | 37 | inactive |
| CG17375 (GeneID 33956) | DRSC02614 | 1.45e5 | 4600 | inactive |
| CG12985 (GeneID 32774) | DRSC19505 | 1.52e5 | 6233 | inactive |
| Cip4 (GeneID 38534) | DRSC08091 | 1.35e5 | 4384 | inactive |
| Cip4 (GeneID 38534) | DRSC08469 | 67303 | 3607 | inactive |
| CG33493 (GeneID 2768994) | DRSC10642 | 1.21e5 | 6622 | inactive |
| CG12093 (GeneID 38343) | DRSC08252 | 81817 | 3301 | inactive |
| thoc5 (GeneID 37810) | DRSC04327 | 81956 | 3194 | inactive |
| CG10853 (GeneID 38465) | DRSC08164 | 98132 | 4227 | inactive |

Continued (11 carried over from the part before).
| Target gene | dsRNA | E2F firefly, rep 1 | Renilla normaliser, rep 1 | outcome |
| --- | --- | --- | --- | --- |
| alpha-Est3 (GeneID 40907) | DRSC12615 | 76923 | 3304 | inactive |
| CG13640 (GeneID 42967) | DRSC14639 | 98153 | 5400 | inactive |
| CG8768 (GeneID 36400) | DRSC07259 | 164 | 37 | inactive |
| CG17375 (GeneID 33956) | DRSC02614 | 1.45e5 | 4600 | inactive |
| CG12985 (GeneID 32774) | DRSC19505 | 1.52e5 | 6233 | inactive |
| Cip4 (GeneID 38534) | DRSC08091 | 1.35e5 | 4384 | inactive |
| Cip4 (GeneID 38534) | DRSC08469 | 67303 | 3607 | inactive |
| CG33493 (GeneID 2768994) | DRSC10642 | 1.21e5 | 6622 | inactive |
| CG12093 (GeneID 38343) | DRSC08252 | 81817 | 3301 | inactive |
| thoc5 (GeneID 37810) | DRSC04327 | 81956 | 3194 | inactive |
| CG10853 (GeneID 38465) | DRSC08164 | 98132 | 4227 | inactive |
| CG18536 (GeneID 37093) | DRSC06763 | 1.54e5 | 4875 | inactive |
| CG32582 (retired record) (GeneID 318099) | DRSC19114 | 83140 | 2850 | inactive |
| lectin-28C (GeneID 53542) | DRSC03010 | 1.48e5 | 5408 | inactive |
| Ir56d (GeneID 37252) | DRSC06590 | 1.27e5 | 4445 | inactive |
| pAbp (GeneID 37070) | DRSC07659 | 42004 | 3023 | inactive |
| CG32066 (GeneID 39206) | DRSC10652 | 70840 | 3138 | inactive |
| CG32066 (GeneID 39206) | DRSC10653 | 95921 | 5164 | inactive |
| Tango8 (GeneID 50210) | DRSC06474 | 1.36e5 | 4846 | inactive |
| CG11970 (GeneID 41072) | DRSC14157 | 70072 | 4095 | inactive |
| Su(var)3-3 (GeneID 40217) | DRSC10250 | 83714 | 3944 | inactive |
| ox (GeneID 45401) | DRSC07520 | 97670 | 4162 | inactive |
| Afti (GeneID 41744) | DRSC16440 | 73363 | 3161 | inactive |
| CG9855 (GeneID 40556) | DRSC12344 | 73633 | 3403 | inactive |
| CG33258 (GeneID 3885664) | DRSC09415 | 1.38e5 | 3945 | inactive |
| Neurochondrin (GeneID 40796) | DRSC12580 | 61683 | 3526 | inactive |
| CG14562 (GeneID 40439) | DRSC11723 | 1.36e5 | 6614 | inactive |
| CG13230 (GeneID 50237) | DRSC06350 | 93857 | 4187 | inactive |
| Yif1 (GeneID 43217) | DRSC15817 | 1.25e5 | 6530 | inactive |
| Ag5r2 (GeneID 44079) | DRSC19328 | 1.46e5 | 5710 | inactive |
| CG13002 (GeneID 32681) | DRSC19521 | 1.42e5 | 6066 | inactive |
| Kap-alpha3 (GeneID 41158) | DRSC16976 | 1.27e5 | 6122 | inactive |
| ath (GeneID 34357) | DRSC02788 | 1.62e5 | 5042 | inactive |
| Nup35 (GeneID 32851) | DRSC19999 | 1.34e5 | 4786 | inactive |
| Z600 (GeneID 39673) | DRSC11317 | 1.54e5 | 7837 | inactive |
| Cpr64Aa (GeneID 38508) | DRSC08460 | 1.01e5 | 5039 | inactive |
| p47 (GeneID 35674) | DRSC06046 | 79355 | 3653 | inactive |
| Brr2 (GeneID 39737) | DRSC10559 | 55259 | 3531 | inactive |
| CG14480 (GeneID 36988) | DRSC06452 | 1.46e5 | 5114 | inactive |
| CG13609 (GeneID 42883) | DRSC14612 | 1.16e5 | 5531 | inactive |
| unc-5 (GeneID 36703) | DRSC05545 | 1.35e5 | 5096 | inactive |
| unc-5 (GeneID 36703) | DRSC07711 | 94631 | 3835 | inactive |
| unc-5 (GeneID 36703) | DRSC07712 | 1.03e5 | 4541 | inactive |
